Experimental findings from the supplement of paper PMC12067093, “Discovery and optimisation of a covalent ligand for TRIM25 and its application to targeted protein ubiquitination” (Chemical Science, 2025) are described below.

By UniProt entry, the sequences of proteins in these tests, tags left out. Where a name states a change or a piece, a line headed by the entry shows the natural chain unless it says otherwise.
UniProt P52888, whole entry, looked up: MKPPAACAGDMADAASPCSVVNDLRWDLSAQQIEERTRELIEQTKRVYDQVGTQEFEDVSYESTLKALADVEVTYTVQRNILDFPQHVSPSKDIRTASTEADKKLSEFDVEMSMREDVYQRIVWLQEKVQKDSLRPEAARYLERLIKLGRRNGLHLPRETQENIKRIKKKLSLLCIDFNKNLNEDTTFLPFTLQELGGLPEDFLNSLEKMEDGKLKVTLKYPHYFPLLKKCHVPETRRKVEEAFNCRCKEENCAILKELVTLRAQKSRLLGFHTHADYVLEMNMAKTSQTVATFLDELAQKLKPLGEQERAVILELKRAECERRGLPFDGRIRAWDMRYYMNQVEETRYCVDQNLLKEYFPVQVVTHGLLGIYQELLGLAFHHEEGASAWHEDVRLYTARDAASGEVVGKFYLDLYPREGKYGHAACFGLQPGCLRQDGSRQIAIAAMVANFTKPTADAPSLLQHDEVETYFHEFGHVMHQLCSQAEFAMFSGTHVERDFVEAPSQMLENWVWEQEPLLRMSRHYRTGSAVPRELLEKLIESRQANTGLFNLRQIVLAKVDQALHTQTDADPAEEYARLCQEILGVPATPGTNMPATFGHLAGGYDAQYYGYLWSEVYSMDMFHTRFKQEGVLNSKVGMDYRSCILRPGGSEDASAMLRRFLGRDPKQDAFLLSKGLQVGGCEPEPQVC
UniProt Q8NI27: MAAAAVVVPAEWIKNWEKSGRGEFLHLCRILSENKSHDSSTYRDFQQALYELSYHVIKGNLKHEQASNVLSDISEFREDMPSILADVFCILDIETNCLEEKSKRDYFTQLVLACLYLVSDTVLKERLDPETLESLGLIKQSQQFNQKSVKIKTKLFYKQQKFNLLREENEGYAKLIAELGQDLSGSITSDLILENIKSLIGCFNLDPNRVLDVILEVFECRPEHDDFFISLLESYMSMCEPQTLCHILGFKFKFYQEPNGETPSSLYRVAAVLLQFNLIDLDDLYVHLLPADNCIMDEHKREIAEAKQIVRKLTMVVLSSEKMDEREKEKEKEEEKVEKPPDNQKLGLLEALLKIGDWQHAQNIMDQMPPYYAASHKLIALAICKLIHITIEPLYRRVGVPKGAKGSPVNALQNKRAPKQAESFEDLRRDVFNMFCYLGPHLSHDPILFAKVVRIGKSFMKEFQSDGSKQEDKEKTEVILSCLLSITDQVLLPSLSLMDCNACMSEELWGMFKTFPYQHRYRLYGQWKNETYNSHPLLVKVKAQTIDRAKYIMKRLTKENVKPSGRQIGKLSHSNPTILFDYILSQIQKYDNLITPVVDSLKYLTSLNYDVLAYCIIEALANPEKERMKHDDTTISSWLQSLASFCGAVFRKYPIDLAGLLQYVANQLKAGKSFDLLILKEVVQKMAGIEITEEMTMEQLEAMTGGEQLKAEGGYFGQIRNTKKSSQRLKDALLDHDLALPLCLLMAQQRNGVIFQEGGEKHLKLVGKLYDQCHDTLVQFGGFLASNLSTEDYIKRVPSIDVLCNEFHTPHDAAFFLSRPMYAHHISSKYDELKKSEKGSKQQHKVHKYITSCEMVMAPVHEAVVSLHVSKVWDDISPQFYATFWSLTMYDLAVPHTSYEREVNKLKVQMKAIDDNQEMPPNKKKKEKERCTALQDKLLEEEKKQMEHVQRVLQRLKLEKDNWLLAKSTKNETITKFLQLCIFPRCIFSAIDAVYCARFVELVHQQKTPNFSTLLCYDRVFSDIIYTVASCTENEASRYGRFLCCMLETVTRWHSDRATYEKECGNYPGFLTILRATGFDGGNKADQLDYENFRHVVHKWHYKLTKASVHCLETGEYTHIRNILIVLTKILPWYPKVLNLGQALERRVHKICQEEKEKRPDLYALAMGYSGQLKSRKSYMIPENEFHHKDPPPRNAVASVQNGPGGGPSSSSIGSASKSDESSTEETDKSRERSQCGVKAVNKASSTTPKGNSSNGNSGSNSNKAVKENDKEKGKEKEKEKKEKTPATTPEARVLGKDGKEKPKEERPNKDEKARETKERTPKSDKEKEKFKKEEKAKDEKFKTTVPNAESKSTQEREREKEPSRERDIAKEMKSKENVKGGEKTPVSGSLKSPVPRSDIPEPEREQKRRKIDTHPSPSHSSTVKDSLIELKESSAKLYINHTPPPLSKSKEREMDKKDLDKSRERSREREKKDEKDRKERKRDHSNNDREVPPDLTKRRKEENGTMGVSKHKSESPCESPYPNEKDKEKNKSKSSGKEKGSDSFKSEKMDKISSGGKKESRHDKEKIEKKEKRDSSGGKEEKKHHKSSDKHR
UniProt Q9NXG2: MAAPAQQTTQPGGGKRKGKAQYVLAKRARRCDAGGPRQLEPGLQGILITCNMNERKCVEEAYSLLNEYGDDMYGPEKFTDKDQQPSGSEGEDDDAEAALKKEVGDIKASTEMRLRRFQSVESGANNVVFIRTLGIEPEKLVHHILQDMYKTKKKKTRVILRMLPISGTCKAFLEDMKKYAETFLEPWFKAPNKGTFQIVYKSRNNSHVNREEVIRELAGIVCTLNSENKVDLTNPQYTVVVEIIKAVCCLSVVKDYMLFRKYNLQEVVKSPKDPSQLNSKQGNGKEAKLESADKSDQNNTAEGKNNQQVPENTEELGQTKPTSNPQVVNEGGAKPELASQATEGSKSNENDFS
UniProt Q9BU02: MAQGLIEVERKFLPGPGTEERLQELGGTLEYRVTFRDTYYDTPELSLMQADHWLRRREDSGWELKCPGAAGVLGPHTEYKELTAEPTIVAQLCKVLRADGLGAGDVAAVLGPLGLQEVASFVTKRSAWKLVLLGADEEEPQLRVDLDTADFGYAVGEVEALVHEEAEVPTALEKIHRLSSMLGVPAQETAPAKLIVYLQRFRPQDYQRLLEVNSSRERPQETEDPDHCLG
UniProt Q8NHU6: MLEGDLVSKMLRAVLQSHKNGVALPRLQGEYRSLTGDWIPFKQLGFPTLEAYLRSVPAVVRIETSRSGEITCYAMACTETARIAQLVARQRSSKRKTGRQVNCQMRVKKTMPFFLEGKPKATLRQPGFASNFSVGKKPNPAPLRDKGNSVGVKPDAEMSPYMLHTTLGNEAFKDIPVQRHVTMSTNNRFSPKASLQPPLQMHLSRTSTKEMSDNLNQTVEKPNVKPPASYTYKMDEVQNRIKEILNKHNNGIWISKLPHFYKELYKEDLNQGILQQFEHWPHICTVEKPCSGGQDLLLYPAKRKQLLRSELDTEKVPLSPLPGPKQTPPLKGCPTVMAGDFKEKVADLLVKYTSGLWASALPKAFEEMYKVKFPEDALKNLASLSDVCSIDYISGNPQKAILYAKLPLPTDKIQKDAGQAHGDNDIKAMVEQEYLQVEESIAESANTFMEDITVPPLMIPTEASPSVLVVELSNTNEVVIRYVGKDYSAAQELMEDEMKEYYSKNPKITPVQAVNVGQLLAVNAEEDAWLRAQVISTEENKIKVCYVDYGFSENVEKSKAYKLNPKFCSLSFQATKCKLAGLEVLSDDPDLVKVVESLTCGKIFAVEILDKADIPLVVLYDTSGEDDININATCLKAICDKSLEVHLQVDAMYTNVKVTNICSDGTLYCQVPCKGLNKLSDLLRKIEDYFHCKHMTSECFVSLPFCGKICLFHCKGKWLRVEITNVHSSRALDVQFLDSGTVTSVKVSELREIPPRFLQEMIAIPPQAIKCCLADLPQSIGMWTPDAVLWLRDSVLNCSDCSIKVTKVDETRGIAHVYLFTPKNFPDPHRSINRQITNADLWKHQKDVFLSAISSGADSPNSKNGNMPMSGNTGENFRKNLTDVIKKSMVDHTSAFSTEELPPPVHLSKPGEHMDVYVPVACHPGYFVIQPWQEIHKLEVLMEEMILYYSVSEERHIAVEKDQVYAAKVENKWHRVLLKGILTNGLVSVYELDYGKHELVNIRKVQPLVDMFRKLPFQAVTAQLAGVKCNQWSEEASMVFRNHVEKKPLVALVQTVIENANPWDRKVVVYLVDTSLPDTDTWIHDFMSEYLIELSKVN
UniProt Q9UBB9: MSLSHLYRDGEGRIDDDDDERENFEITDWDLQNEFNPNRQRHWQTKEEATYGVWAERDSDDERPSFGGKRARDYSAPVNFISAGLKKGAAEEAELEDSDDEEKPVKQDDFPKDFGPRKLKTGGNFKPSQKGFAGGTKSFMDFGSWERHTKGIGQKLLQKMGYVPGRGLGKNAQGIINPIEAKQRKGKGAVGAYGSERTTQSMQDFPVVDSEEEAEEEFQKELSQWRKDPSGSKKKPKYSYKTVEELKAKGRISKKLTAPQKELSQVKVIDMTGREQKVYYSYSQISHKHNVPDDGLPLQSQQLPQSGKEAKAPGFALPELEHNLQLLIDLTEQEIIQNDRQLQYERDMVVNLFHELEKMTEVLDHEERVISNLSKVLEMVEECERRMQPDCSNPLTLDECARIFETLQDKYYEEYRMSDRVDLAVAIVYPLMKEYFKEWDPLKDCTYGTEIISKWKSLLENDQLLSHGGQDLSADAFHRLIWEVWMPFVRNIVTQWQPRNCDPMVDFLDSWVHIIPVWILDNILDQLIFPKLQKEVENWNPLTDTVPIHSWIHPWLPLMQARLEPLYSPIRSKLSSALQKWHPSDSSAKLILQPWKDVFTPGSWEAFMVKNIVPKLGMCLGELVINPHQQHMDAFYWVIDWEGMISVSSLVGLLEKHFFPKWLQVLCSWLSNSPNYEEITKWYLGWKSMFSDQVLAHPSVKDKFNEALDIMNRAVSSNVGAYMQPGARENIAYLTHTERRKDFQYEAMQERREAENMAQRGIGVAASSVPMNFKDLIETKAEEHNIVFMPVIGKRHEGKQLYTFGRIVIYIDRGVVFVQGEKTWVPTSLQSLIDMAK
UniProt Q9Y4R8, whole entry, looked up: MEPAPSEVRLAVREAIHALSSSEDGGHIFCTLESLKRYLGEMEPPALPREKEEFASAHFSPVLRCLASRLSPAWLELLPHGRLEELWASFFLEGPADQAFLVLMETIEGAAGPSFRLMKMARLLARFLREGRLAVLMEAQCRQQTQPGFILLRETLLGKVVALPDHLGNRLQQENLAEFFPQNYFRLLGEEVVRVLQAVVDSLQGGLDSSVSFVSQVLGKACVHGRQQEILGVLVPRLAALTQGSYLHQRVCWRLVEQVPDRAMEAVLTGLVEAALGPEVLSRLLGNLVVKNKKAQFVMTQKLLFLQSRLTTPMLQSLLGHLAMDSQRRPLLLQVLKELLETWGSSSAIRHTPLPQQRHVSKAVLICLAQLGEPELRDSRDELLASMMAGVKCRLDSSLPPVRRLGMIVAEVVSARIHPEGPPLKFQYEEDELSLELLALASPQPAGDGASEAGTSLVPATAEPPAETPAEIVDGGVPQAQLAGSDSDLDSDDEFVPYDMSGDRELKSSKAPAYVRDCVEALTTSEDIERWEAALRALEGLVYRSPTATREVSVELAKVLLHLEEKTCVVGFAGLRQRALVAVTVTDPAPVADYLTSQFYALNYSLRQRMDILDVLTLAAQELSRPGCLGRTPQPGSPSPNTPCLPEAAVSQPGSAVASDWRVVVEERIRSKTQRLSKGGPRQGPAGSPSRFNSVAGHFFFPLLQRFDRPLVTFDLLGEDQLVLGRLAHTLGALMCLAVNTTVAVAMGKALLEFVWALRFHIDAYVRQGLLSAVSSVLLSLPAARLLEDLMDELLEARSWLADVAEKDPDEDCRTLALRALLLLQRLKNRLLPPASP
UniProt Q5TEJ8: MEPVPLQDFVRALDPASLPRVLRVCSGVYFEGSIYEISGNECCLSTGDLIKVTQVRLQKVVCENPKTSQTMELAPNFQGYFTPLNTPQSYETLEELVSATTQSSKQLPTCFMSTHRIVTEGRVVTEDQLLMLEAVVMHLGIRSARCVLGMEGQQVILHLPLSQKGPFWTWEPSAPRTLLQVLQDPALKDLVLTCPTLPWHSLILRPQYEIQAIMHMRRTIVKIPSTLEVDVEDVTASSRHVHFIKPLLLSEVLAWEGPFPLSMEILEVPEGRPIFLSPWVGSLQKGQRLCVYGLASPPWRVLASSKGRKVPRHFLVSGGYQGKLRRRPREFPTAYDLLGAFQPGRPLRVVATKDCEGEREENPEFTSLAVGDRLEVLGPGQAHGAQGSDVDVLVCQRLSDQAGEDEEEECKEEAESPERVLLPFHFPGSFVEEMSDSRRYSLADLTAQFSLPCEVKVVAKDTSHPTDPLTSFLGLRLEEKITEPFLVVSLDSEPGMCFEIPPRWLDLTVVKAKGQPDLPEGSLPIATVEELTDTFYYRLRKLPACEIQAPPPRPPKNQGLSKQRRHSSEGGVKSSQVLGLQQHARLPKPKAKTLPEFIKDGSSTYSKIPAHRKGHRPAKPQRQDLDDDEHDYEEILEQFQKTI

Some of the results follow.

Compound in the assay: CC1Cc2ccccc2N1C(=O)C1CCCN(C1)C(=O)CCl (mixture of isomers) [TRIM25 ligand 11 (diastereomer mixture)]
Nature of the assay: probe-labelled cysteine peptide fold change vs DMSO (competition) (log2 fold change); higher = less target engagement (more negative = stronger competition). The note with it: THP-1, incubation time: 4 h.
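Further: competitive chemoproteomic profiling in live THP-1 cells with an iodoacetamide desthiobiotin (IA-DTB) probe, comparing probe-labelled peptide intensities in compound-treated cells against DMSO-treated controls.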

With “THOP1_P52888_246_RKVEEAFNCR (UniProt P52888)”, the “probe-labelled cysteine peptide fold change” value (10 µM) is -0.0586 and the “probe-labelled cysteine peptide fold change” value (50 µM) is -0.205.

As to TGS1_Q96RS0_28_ILCLCSR (UniProt Q96RS0), the “probe-labelled cysteine peptide fold change” value (10 µM) was -0.0199 and the “probe-labelled cysteine peptide fold change” value (50 µM) is 0.063.

For the target “THOC2_Q8NI27_853_YITSCEMVMAPVHEAVVSLHVSK (UniProt Q8NI27)”, the “probe-labelled cysteine peptide fold change” value (10 µM) is -0.013 and the “probe-labelled cysteine peptide fold change” value (50 µM) is -0.0259.

Take “THUMPD1_Q9NXG2_248_AVCCLSVVK (UniProt Q9NXG2)”: the “probe-labelled cysteine peptide fold change” value reads like this: (10 µM) 0.176; (50 µM) 0.235.

For “THOC5_Q13769_59_YTCQELQR (UniProt Q13769)”, the “probe-labelled cysteine peptide fold change” value stood at 0.0519 (10 µM) and 0.132 (50 µM).

Turning to “THOP1_P52888_644_SCILRPGGSEDASAMLR (UniProt P52888)”, the “probe-labelled cysteine peptide fold change” value was 0.0607 (10 µM) and -0.0855 (50 µM).

With “TDRD3_Q9H7E2_377_CDRPYSR (UniProt Q9H7E2)”, the “probe-labelled cysteine peptide fold change” value was -0.0819 (10 µM) and -0.0934 (50 µM).

As for “TLDC1_Q6P9B6_292_GPCVAVLEDHDK (UniProt Q6P9B6)”, the “probe-labelled cysteine peptide fold change” value worked out at 0.127 (10 µM) and 0.295 (50 µM).

As to “THOC2_Q8NI27_986_CIFSAIDAVYCAR (UniProt Q8NI27)”, the “probe-labelled cysteine peptide fold change” value (10 µM) is -0.137 and the “probe-labelled cysteine peptide fold change” value (50 µM) was found to be 0.0824.

“TDP1_Q9NUW8_251_PYENISLCQAK (UniProt Q9NUW8)”: the “probe-labelled cysteine peptide fold change” value is, setting by setting: (10 µM) 0.182; (50 µM) 0.202.

Take “THTPA_Q9BU02_66_CPGAAGVLGPHTEYK (UniProt Q9BU02)”: the “probe-labelled cysteine peptide fold change” value reads like this: (10 µM) -0.0203; (50 µM) -0.196.

Regarding “TLE3_Q04726_528_SPISQLDCLNR (UniProt Q04726)”, the “probe-labelled cysteine peptide fold change” value reads like this: (10 µM) -0.0741; (50 µM) -0.0787.

Take “TDRD7_Q8NHU6_103_QVNCQMR (UniProt Q8NHU6)”: the “probe-labelled cysteine peptide fold change” value is, setting by setting: (10 µM) -0.127; (50 µM) -0.0111.

In the case of “TIAL1_Q01085_51_MITEHTSNDPYCFVEFYEHR (UniProt Q01085)”, the “probe-labelled cysteine peptide fold change” value is, setting by setting: (10 µM) 0.194; (50 µM) -0.0405.

As for “THOC6_Q86W42_324_VLTAAGNSCR (UniProt Q86W42)”, the “probe-labelled cysteine peptide fold change” value runs as follows: (10 µM) -0.0484; (50 µM) 0.0776.

Turning to “THOC2_Q8NI27_804_RVPSIDVLCNEFHTPHDAAFFLSR (UniProt Q8NI27)”, the “probe-labelled cysteine peptide fold change” value was determined as 0.151 (10 µM) and 0.0437 (50 µM).

For “TFIP11_Q9UBB9_383_VLEMVEECERR (UniProt Q9UBB9)”, the “probe-labelled cysteine peptide fold change” value (10 µM) was -0.151 and the “probe-labelled cysteine peptide fold change” value (50 µM) was -0.066.

For the target “TIMELESS_Q9UNS1_96_LMVNLTQPALLCFGNLPK (UniProt Q9UNS1)”, the “probe-labelled cysteine peptide fold change” value turned out to be 0.287 (10 µM) and 0.154 (50 µM).

Regarding “TGFBI_Q15582_49_QHGPNVCAVQK (UniProt Q15582)”, the “probe-labelled cysteine peptide fold change” value is, setting by setting: (10 µM) 0.331; (50 µM) 0.203.

With “TES_Q9UGI8_361+364_NHAVVCQGCHNAIDPEVQR (UniProt Q9UGI8)”, the “probe-labelled cysteine peptide fold change” value was -0.0698 (10 µM) and 0.0345 (50 µM).

With “THUMPD1_Q9NXG2_169_MLPISGTCK (UniProt Q9NXG2)”, the “probe-labelled cysteine peptide fold change” value is, setting by setting: (10 µM) 0.0629; (50 µM) -0.0638.

Regarding “TELO2_Q9Y4R8_568_TCVVGFAGLR (UniProt Q9Y4R8)”, the “probe-labelled cysteine peptide fold change” value runs as follows: (10 µM) 0.0025; (50 µM) 0.0967.

Take “THBD_P07204_265_CQCPAGAALQADGR (UniProt P07204)”: the “probe-labelled cysteine peptide fold change” value is -0.113 (10 µM) and 0.0933 (50 µM).

As to “TLN1_Q9Y490_1087_CTQDLGNSTK (UniProt Q9Y490)”, the “probe-labelled cysteine peptide fold change” value (10 µM) stood at 0.00467 and the “probe-labelled cysteine peptide fold change” value (50 µM) amounted to 0.146.

Take “TGFBRAP1_Q8WUH2_582_NSFNPDDIINCLK (UniProt Q8WUH2)”: the “probe-labelled cysteine peptide fold change” value (10 µM) was 0.0163 and the “probe-labelled cysteine peptide fold change” value (50 µM) is 0.0519.

Take “TCP1_P17987_218_SQMESMLISGYALNCVVGSQGMPK (UniProt P17987)”: the “probe-labelled cysteine peptide fold change” value is -0.0532 (10 µM) and 0.0594 (50 µM).

For “TEPSIN_Q96N21_493_LVGAGAAAGESCPDAPR (UniProt Q96N21)”, the “probe-labelled cysteine peptide fold change” value is 0.112 (10 µM) and -0.193 (50 µM).

On to “THOP1_P52888_321_RAECER (UniProt P52888)”, for which the “probe-labelled cysteine peptide fold change” value runs as follows: (10 µM) -0.00042; (50 µM) 0.0102.

On to “THOC2_Q8NI27_804_VPSIDVLCNEFHTPHDAAFFLSR (UniProt Q8NI27)”, for which the “probe-labelled cysteine peptide fold change” value is, setting by setting: (10 µM) -0.0406; (50 µM) 0.364.

For “TCERG1_O14776_535_AKPVATAPIPGTPWCVVWTGDER (UniProt O14776)”, the “probe-labelled cysteine peptide fold change” value is, setting by setting: (10 µM) -0.00115; (50 µM) 0.147.

Consider “TEP1_Q99973_2275_EADDTCIPR (UniProt Q99973)”, for which the “probe-labelled cysteine peptide fold change” value (10 µM) was 0.00158 and the “probe-labelled cysteine peptide fold change” value (50 µM) was -0.202.

For “THOC2_Q8NI27_1111_ASVHCLETGEYTHIR (UniProt Q8NI27)”, the “probe-labelled cysteine peptide fold change” value is 0.159 (10 µM) and 0.0514 (50 µM).

Turning to “THEMIS2_Q5TEJ8_410_LSDQAGEDEEEECKEEAESPER (UniProt Q5TEJ8)”, the “probe-labelled cysteine peptide fold change” value is 0.122 (10 µM) and -0.0422 (50 µM).

For the target “THEMIS2_Q5TEJ8_453_YSLADLTAQFSLPCEVK (UniProt Q5TEJ8)”, the “probe-labelled cysteine peptide fold change” value runs as follows: (10 µM) -0.0697; (50 µM) -0.154.

Consider “THBD_P07204_175_ADGFLCEFHFPATCRPLAVEPGAAAAAVSITYGTPFAAR (UniProt P07204)”, for which the “probe-labelled cysteine peptide fold change” value reads like this: (10 µM) 0.126; (50 µM) -0.191.

As to “TGFBR1_P36897_101_TGSVTTTYCCNQDHCNK (UniProt P36897)”, the “probe-labelled cysteine peptide fold change” value (10 µM) was -0.0331 and the “probe-labelled cysteine peptide fold change” value (50 µM) worked out at 0.044.
